# Library screening results

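Viability assay of Plasmodium falciparum sporozoites; the read-out is not stated. The concentration is filed as 10 mM, unlikely as a test dose, so the dose is not known. Higher reads as lower viability (inferred: compounds with an IC50 in retests scored well above the rest). Strong results were mostly tested again. About 34,000 compounds were tested under these conditions; 0.84% (about 280) showed 50% or more at least once.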

Each number is a percent effect as filed. The controls that fix the scale are not given in the record; negative values are as filed. This is an unselected part of the compounds tested. Two or more numbers in one place are separate tests of the same structure; such repeats can differ widely.

SMILES: CCC1CN(CC(=O)Nc2cc(C)nn2C)CCO1 (stereo not drawn)
percent effect: 4.236

SMILES: CC(=O)Nc1nc(C2CCCN(C(=O)CN(C)C)C2)cs1 (stereo not drawn)
percent effect: -8.258

SMILES: COc1ccc(CC(=O)NC2CCc3nc(C)cn3C2)cc1 (stereo not drawn)
percent effect: 8.088

SMILES: Cn1c(C2CC2)nc2c1CCN(Cc1nc(-c3ccsc3)no1)C2
percent effect: 19.95 & 27.05 & 21.39

SMILES: CO[C@@H]1CN(c2ccccc2)S(=O)(=O)[C@@]12CCN(S(C)(=O)=O)C2
percent effect: -36.51

SMILES: [H][C@@]12OCCN(Cc3nccs3)[C@@]1([H])CC[C@@H]2Oc1ccccn1
percent effect: -22.9

SMILES: O=C(O)C(F)(F)F.[H][C@]12CCN(c3ncccn3)CC[C@@]1([H])S(=O)(=O)N(CC(C)C)C2
percent effect: -3.053

SMILES: Cc1nc(C2CCCN(C(=O)c3sccc3C3CC3)C2)no1 (stereo not drawn)
percent effect: -15.01

SMILES: Cc1nnc(CN(Cc2ccccc2C(F)(F)F)C2CC2)o1
percent effect: -0.5922 & -9.187

SMILES: CCc1nc(CN2CCN(C(=O)Cc3c(C)noc3C)CC2)cs1
percent effect: 9.018

SMILES: Cc1cc(CN2CCC(N(C)Cc3noc(C4CC4)n3)C2)no1 (stereo not drawn)
percent effect: -1.885

SMILES: CCN(Cc1ccc2c(c1)OCCO2)S(=O)(=O)N(C)C(C)C
percent effect: 23.88

SMILES: Cc1nc(-c2ccc(Cl)s2)sc1C(=O)NC(C)(C)C(N)=O
percent effect: -4.021

SMILES: Cc1cn2nc(N(C)C3CCCN(c4cccnn4)C3)sc2n1 (stereo not drawn)
percent effect: 2.682

SMILES: O=C(O)C(F)(F)F.[H][C@@]12CCN(Cc3ccc4c(c3)OCO4)C[C@]1([H])O[C@@H](C(=O)NC1CC1)C2
percent effect: -3.406

SMILES: COC(=O)C(C)(C)NC(=O)C1CC(=O)N(C2CCCC2)C1 (stereo not drawn)
percent effect: -3.835

SMILES: O=C(NCc1cc[nH]n1)NCC(O)c1ccccc1F (stereo not drawn)
percent effect: 3.934

SMILES: COCc1nc(C(=O)N2CCCC(n3ccnc3C(C)C)C2)cs1 (stereo not drawn)
percent effect: 4.125

SMILES: COc1ccc(OC)c(CNCc2c(C(C)C)nn(C)c2N(C)C)c1
percent effect: 12.14

SMILES: Cc1nc(C)n(CC2CN(c3ccc(C#N)cn3)CCO2)n1 (stereo not drawn)
percent effect: 1.874

SMILES: COc1cc(N2CCC3(CC2)CC(N2CCN(C)CC2)CO3)ncn1.O=C(O)C(F)(F)F.O=C(O)C(F)(F)F (stereo not drawn)
percent effect: 4.79

SMILES: Cc1nn(C)c(N(C)C)c1CNCC(O)c1ccccc1 (stereo not drawn)
percent effect: 6.257

SMILES: O=C1C(NS(=O)(=O)c2cccc(F)c2)CCN1Cc1ccccc1 (stereo not drawn)
percent effect: 0.6244

SMILES: Cc1noc(C)c1-c1cc(CCC2CN(C(=O)CN)CCO2)ncn1 (stereo not drawn)
percent effect: 3.927

SMILES: CN(C)S(=O)(=O)N1CCCC(c2cccc(Cc3ccc(F)cc3)n2)C1 (stereo not drawn)
percent effect: 5.523

SMILES: COc1cccc(CNCC2CCN(CC(C)O)CC2)c1OC (stereo not drawn)
percent effect: 7.248

SMILES: O=C(O)C(F)(F)F.O=C(c1ccco1)N1CCC2(CCCN(c3ncccn3)C2)C1 (stereo not drawn)
percent effect: 9.157

SMILES: CC(NCc1ccc(F)cc1)c1ccc2[nH]c(=O)[nH]c2c1 (stereo not drawn)
percent effect: -87.88

SMILES: COC(=O)CN(C)C1CCc2ccccc21 (stereo not drawn)
percent effect: 10.39

SMILES: Cc1nnsc1C(=O)NCc1cccnc1N1CCc2ccccc2C1
percent effect: -7.544

SMILES: CC(C)NC(=O)Cn1cc(-c2ccccc2)cn1
percent effect: -4.535

SMILES: Cl.Cl.c1csc(CN2CCc3c(CNc4nncs4)cncc3C2)c1
percent effect: -15.15

SMILES: CC(=O)N1CCCN(C(=O)c2ccc(Cn3ccccc3=O)o2)CC1
percent effect: -3.307

SMILES: FC(F)(F)CCc1ccnc(NC2CCOC2)n1 (stereo not drawn)
percent effect: 12.97

Some entries from above, unchanged:

* Cc1nc(-c2ccc(Cl)s2)sc1C(=O)NC(C)(C)C(N)=O | -4.021%
* CCN(Cc1ccc2c(c1)OCCO2)S(=O)(=O)N(C)C(C)C | 23.88%

Source: ChEMBL document CHEMBL3988442, “University of Dundee, Small-Polar-MMV Screening Library” (2021).